Source: PubChem BioAssay AID1259308 (NCATS, 2017)
Here is a random part of about 59,000 reagents tested. Of all reagents, about 1,510 (2.6%) are marked active. 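Calls use total luciferase alone and ignore viability, so some active siRNAs may act by altering cell number.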 A number with no mark means an inactive call. Further read-outs or replicates are left out here. Reagent sequences are not shown.

Purpose: 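Knock-downs that increase output of a recombinant reporter protein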 (primary screen)
Cell system: human HEK293 embryonic kidney cells stably expressing firefly luciferase (HEK-CMV-Luc2-Hygro)
Knock-down reagent: single siRNA against human genes, 0.8 pmol siRNA per well
Timing: 72 h
Measured: 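Reporter luminescence and viable-cell signal on separate replicate plates, given as percent of non-targeting control and median/MAD z-scores, plus per-cell luciferase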
Direction: total luciferase, z-score and total luciferase, % of control: higher = more reporter protein produced
Hit rule: 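An siRNA counts as active if its total luciferase robust z-score exceeds 3; genes with two or more such siRNAs out of three were retested with fresh siRNAs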
Meaning of the calls: active = raised luciferase; inactive = no rise

CDH10 [SID160730403] — total luciferase, z-score = 0.842; total luciferase, % of control = 98.6
CDH10 [SID160740608] — total luciferase, z-score = -0.0262; total luciferase, % of control = 81.4
CDH10 [SID160740629] — total luciferase, z-score = -1.37; total luciferase, % of control = 54.7
ZNF700 [SID160753753] — total luciferase, z-score = 1.81; total luciferase, % of control = 118
ZNF700 [SID160753754] — total luciferase, z-score = 1.23; total luciferase, % of control = 106
ZNF700 [SID160753755] — total luciferase, z-score = 0.587; total luciferase, % of control = 93.6
KDM2B [SID160752577] — total luciferase, z-score = 0.61; total luciferase, % of control = 94
KDM2B [SID160752578] — total luciferase, z-score = 0.198; total luciferase, % of control = 85.8
KDM2B [SID160752579] — total luciferase, z-score = -1.18; total luciferase, % of control = 58.4
CLPS [SID160723698] — total luciferase, z-score = 0.37; total luciferase, % of control = 89.3
CLPS [SID160744700] — total luciferase, z-score = -1.57; total luciferase, % of control = 50.6
CLPS [SID160744710] — total luciferase, z-score = -0.229; total luciferase, % of control = 77.3
